Laboratory results as given in the supplement of paper PMC10849652.
The other results are listed elsewhere or left out.

By UniProt entry, the sequences of proteins in these tests, tags left out. Where a name states a change or a piece, a line headed by the entry shows the natural chain unless it says otherwise.
UniProt Q495W5: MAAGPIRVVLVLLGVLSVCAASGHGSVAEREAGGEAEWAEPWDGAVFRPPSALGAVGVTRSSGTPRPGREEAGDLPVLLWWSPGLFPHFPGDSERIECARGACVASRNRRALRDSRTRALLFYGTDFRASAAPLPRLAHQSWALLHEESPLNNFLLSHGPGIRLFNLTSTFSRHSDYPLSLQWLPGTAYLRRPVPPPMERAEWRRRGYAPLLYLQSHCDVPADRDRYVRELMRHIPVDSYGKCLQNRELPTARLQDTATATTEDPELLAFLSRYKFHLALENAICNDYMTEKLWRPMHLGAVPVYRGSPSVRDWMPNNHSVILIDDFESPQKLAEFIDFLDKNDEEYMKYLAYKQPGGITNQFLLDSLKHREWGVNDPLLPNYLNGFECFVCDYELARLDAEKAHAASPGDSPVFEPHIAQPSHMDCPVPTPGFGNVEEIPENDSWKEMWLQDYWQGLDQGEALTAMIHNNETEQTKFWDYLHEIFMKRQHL
UniProt A2VDF0: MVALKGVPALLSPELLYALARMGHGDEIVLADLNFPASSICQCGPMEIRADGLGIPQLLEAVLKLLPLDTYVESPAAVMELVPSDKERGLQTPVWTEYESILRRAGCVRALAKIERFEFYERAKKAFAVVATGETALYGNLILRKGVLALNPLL
UniProt P50440: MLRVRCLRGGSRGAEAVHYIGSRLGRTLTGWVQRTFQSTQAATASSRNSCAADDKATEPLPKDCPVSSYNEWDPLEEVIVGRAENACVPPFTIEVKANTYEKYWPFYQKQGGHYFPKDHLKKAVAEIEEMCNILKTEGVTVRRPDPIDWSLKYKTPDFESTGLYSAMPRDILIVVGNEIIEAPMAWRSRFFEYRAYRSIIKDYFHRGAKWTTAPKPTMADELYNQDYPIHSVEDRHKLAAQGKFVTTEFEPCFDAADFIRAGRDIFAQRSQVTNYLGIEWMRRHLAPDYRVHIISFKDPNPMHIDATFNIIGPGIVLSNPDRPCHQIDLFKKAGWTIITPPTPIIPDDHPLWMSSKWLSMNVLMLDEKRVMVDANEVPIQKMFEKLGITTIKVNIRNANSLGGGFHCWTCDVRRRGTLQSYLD
UniProt Q86XX4: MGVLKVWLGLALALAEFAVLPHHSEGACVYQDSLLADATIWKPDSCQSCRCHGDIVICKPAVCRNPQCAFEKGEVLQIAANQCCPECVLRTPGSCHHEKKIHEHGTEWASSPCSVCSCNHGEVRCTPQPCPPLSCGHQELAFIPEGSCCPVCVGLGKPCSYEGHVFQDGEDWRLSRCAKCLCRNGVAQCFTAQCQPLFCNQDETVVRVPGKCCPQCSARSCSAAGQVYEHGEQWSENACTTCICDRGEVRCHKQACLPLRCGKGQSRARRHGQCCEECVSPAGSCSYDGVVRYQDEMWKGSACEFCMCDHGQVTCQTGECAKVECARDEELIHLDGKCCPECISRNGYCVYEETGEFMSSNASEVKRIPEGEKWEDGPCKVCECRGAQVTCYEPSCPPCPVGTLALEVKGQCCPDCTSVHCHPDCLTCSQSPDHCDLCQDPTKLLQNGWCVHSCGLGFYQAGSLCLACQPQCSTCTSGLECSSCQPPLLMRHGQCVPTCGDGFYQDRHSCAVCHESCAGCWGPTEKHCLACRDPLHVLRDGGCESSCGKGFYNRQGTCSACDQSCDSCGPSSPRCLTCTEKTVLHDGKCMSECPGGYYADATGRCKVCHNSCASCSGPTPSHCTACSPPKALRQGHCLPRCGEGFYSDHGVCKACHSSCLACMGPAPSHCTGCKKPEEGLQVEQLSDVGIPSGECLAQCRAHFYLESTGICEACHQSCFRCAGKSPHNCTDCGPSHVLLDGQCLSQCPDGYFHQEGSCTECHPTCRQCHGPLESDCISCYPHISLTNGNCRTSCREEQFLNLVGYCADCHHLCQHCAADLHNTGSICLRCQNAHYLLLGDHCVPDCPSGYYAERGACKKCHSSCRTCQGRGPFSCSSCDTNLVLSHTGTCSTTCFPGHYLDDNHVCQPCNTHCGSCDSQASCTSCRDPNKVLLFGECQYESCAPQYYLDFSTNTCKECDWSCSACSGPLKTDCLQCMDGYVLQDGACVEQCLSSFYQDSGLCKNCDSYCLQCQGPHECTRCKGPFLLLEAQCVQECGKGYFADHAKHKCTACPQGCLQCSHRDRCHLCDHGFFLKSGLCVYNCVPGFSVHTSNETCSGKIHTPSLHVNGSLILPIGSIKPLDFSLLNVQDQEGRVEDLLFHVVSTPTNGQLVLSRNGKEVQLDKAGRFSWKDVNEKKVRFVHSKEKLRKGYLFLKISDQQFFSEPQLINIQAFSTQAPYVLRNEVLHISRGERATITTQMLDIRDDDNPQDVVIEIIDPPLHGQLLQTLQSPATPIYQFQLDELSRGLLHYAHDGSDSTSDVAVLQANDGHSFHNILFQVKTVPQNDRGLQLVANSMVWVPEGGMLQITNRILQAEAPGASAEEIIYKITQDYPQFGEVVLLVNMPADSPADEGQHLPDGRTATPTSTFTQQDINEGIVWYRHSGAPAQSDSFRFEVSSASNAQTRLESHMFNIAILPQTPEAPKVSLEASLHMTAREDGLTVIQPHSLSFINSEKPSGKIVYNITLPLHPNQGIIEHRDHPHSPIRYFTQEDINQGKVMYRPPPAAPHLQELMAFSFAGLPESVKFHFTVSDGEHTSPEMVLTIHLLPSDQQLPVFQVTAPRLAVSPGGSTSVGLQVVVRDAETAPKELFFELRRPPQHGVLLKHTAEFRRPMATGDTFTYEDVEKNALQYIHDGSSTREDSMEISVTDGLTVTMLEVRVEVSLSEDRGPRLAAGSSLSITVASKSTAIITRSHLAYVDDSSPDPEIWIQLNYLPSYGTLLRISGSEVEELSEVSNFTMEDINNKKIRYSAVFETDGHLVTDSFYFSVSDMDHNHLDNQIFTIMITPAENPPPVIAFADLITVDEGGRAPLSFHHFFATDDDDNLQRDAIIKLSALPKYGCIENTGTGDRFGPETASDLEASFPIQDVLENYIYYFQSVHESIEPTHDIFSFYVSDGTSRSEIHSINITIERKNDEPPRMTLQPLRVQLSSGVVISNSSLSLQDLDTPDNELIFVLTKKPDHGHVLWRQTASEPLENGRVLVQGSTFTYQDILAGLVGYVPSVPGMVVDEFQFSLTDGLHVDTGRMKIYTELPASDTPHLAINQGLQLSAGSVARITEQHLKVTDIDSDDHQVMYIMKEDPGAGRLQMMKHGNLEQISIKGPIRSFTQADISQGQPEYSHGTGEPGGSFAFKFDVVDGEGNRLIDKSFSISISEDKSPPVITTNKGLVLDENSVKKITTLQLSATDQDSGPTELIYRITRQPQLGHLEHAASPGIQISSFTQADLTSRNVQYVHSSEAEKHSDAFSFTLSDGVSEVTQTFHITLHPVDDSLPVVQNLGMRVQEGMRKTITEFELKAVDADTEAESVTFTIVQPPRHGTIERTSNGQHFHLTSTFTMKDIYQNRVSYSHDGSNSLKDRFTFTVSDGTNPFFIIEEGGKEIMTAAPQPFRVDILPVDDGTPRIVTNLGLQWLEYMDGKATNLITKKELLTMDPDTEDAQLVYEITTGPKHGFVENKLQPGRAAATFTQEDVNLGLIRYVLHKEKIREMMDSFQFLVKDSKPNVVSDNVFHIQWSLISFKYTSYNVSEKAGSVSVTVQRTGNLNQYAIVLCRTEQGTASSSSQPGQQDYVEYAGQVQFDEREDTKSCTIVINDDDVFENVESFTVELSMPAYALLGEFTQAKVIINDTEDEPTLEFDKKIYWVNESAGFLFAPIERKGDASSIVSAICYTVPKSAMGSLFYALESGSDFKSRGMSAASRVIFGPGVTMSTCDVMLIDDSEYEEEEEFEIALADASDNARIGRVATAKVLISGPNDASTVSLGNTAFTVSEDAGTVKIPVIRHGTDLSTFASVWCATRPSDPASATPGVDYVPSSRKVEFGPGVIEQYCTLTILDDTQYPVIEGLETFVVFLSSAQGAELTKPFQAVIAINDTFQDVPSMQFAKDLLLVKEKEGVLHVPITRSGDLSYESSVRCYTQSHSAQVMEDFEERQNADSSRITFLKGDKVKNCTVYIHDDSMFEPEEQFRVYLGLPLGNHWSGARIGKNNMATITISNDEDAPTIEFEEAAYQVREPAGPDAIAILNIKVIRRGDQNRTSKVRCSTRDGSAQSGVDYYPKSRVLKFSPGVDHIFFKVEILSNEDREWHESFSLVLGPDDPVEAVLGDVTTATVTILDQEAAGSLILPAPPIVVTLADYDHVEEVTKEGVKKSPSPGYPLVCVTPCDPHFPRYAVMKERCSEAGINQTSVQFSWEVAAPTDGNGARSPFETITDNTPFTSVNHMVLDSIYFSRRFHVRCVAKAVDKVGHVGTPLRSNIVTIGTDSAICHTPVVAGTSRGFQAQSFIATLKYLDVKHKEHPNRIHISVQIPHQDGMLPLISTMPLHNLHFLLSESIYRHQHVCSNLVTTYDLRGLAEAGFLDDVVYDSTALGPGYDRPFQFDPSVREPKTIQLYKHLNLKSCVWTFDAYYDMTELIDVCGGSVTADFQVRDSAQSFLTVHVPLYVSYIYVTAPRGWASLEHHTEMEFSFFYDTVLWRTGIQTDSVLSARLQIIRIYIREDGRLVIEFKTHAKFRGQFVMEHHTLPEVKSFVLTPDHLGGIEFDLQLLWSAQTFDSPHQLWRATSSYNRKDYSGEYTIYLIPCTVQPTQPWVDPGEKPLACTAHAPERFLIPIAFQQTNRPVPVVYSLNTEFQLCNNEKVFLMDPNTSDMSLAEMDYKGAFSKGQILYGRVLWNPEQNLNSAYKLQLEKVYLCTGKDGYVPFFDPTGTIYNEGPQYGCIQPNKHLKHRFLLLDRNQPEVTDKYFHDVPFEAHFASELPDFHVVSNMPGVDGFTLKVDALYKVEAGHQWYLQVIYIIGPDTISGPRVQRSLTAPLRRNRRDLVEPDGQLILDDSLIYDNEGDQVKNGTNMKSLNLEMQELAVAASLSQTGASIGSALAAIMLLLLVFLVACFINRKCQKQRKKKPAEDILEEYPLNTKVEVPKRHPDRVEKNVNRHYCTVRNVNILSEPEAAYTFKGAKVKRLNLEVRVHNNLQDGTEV
UniProt Q8WWW8: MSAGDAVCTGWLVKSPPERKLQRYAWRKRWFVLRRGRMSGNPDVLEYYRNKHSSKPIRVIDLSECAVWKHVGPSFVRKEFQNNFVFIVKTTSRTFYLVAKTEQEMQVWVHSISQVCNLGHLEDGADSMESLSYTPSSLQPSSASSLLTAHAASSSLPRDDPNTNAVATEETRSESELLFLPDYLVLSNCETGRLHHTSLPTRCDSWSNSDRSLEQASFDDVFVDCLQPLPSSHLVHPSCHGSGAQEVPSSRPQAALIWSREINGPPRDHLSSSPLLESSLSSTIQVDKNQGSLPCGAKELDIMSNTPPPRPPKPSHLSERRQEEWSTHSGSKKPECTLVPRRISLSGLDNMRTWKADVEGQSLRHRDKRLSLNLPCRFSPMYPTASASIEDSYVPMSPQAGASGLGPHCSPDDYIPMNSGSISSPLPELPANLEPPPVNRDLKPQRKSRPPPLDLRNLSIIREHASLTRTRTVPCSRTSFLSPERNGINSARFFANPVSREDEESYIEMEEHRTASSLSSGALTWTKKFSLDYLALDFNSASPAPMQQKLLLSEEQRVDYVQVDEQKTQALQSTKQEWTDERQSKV
UniProt Q9UP38, whole entry, looked up: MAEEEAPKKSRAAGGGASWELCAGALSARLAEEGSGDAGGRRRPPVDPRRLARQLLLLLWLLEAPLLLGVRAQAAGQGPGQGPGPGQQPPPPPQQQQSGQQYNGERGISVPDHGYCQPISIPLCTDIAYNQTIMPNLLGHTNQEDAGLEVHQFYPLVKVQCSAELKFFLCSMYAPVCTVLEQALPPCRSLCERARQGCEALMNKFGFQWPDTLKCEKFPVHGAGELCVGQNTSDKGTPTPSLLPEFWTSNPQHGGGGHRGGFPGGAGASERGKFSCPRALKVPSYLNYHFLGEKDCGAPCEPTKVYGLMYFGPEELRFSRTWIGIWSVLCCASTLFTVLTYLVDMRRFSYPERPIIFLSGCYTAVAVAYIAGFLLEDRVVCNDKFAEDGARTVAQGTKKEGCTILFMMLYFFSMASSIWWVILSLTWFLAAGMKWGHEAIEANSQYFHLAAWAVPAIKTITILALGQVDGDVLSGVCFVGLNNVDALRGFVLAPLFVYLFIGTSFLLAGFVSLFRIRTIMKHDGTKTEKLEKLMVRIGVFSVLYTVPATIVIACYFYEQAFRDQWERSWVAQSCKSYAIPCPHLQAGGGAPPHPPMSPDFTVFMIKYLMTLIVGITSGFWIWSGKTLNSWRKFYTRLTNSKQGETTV

Assays:
Experiment in all cases: log2 fold change, soluble protein after heating vs DMSO (PISA); higher = thermal stabilisation; K562 lysate, 10 uM; active = over 0.2 and 3.5 SD of the protein, either way, in both replicates (recomputed)
erlotinib = compound: C#Cc1cccc(Nc2ncnc3cc(OCCOC)c(OCCOC)cc23)c1 [erlotinib]
Summary of the method: (§1)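 Soluble protein was defined as the supernatant remaining after 21,000xg for 90 min, following pooling of heated aliquots and adjustment to 0.5% NP-40 at 4°C. Before that, crude K562 extract at 1 mg/mL protein in PBS pH 7.4 with 1 mM MgCl2 was treated with 10 μM compound for 30 min and heated for 3 min across 48°C-58°C. Quantification used TMTpro 16plex LC-MS/MS with channel sums equalised, and values are log-two fold changes in thermal stability relative to solvent controls from duplicates.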

[1] = compound: C1=CC(=CC=C1C2=NC3=C(N2)C=C(C=C3)C(=O)N)OC4=CC=C(C=C4)Cl
Summary of the method: as §1

[2] = compound: C1=CC2=NC=CN=C2C=C1/C=C/3\C(=O)NC(=O)S3
Summary of the method: as §1

[3] = compound: C1=CC=C(C=C1)C2=NC(=C(N2)C3=CC=NC=C3)C4=CC(=C(C=C4)Cl)O
Summary of the method: as §1

[4] = compound: C1CCN(C1)C(=O)NC2=CC=CC(=C2)NC3=NC=C(C(=N3)NCCC4=CN=CN4)Br
Summary of the method: as §1

[5] = compound: C1CN(CCC1(CC2=CC=C(C=C2)Cl)N)C3=NC=NC4=C3C=CN4
Summary of the method: as §1

IRAK-1-4 Inhibitor I = compound: C1COCCN1CCN2C3=CC=CC=C3N=C2NC(=O)C4=CC(=CC=C4)[N+](=O)[O-] [IRAK-1-4 Inhibitor I]
Summary of the method: as §1

ibrutinib = compound: C=CC(=O)N1CCC[C@@H](n2nc(-c3ccc(Oc4ccccc4)cc3)c3c(N)ncnc32)C1 [ibrutinib]
Summary of the method: as §1

[6] = compound: CC(=O)c1cnc2ccc(-c3cc(Cl)c(O)c(Cl)c3)nc2c1N[C@H]1CC[C@H](CN(C)C)CC1
Summary of the method: as §1

ralimetinib = compound: CC(C)(C)Cn1c(N)nc2ccc(-c3[nH]c(C(C)(C)C)nc3-c3ccc(F)cc3)nc21 [ralimetinib]
Summary of the method: as §1

[7] = compound: CC(C)(O)CC(=O)NCCn1ccc2ncnc(Nc3ccc(Oc4cccc(C(F)(F)F)c4)c(Cl)c3)c21
Summary of the method: as §1

[8] = compound: CC(C)C1=C2N=C(C=C(N2N=C1)NCC3=CC=CC=C3)NCCCCCCN
Summary of the method: as §1

[9] = compound: CC1=C(C(CC(=O)N1)C2=CC=C(C=C2)C(F)(F)F)C(=O)NC3=C(C=C4C(=C3)C=NN4)F
Summary of the method: as §1

[10] = compound: CC1=C(C=C(C=C1)NC(=O)C2=CC(=CC=C2)C(C)(C)C#N)NC3=CC4=C(C=C3)N=CN(C4=O)C
Summary of the method: as §1

[11] = compound: CC1=C(C=C(C=C1)NC(=O)C2=CC(=CC=C2)N(C)C)NC(=O)C3=CC=C(C=C3)O
Summary of the method: as §1

[12] = compound: CC1=CC=C(C=C1)SC2=C3C=C(SC3=CN=C2)C(=O)N
Summary of the method: as §1

[13] = compound: CC1=C(C2=C(C=C1)C(=O)C3=CC=CC=C3N2CCCN)C
Summary of the method: as §1

[14] = compound: C/C(=N\NC(=O)C1=CC(=CC=C1)S(=O)(=O)N2CCOCC2)/C3=C(C=CC(=C3)Cl)O
Summary of the method: as §1

[15] = compound: C1=CC2=C(C=CC(=C2)/C=C\3/C(=O)NC(=NCC4=CC=CS4)S3)N=C1
Summary of the method: as §1

[16] = compound: C1=CC=C2C(=C1)C3=NNC4=CC=CC(=C43)C2=O
Summary of the method: as §1

FUT11 (UniProt Q495W5)
log2 fold change (erlotinib): inactive: -0.061
log2 fold change [1]: inactive: -0.026
log2 fold change [2]: inactive: -0.186
log2 fold change [3]: inactive: -0.077
log2 fold change [4]: inactive: -0.129
log2 fold change [5]: inactive: 0.075
log2 fold change (IRAK-1-4 Inhibitor I): inactive: -0.019
log2 fold change (ibrutinib): inactive: -0.172
log2 fold change [6]: inactive: 0.001
log2 fold change (ralimetinib): inactive: 0.003
log2 fold change [7]: inactive: -0.011
log2 fold change [8]: inactive: 0.112
log2 fold change [9]: inactive: -0.082
log2 fold change [10]: inactive: -0.12
log2 fold change [11]: inactive: 0.02
log2 fold change [12]: inactive: -0.261

GANC (UniProt Q8TET4)
log2 fold change (erlotinib): inactive: -0.045
log2 fold change [1]: inactive: 0.139
log2 fold change [3]: inactive: 0.025
log2 fold change [4]: inactive: -0.049
log2 fold change [5]: inactive: 0.118
log2 fold change (IRAK-1-4 Inhibitor I): inactive: 0.053
log2 fold change [6]: inactive: -0.142
log2 fold change (ralimetinib): inactive: 0.054
log2 fold change [7]: inactive: -0.226
log2 fold change [8]: inactive: 0.072
log2 fold change [13]: inactive: -0.061
log2 fold change [10]: inactive: 0.008
log2 fold change [11]: inactive: 0
log2 fold change [12]: inactive: 0.125

FSIP2 (UniProt Q5CZC0)
log2 fold change (erlotinib): inactive: -0.148
log2 fold change [1]: inactive: 0.084
log2 fold change [3]: inactive: -0.109
log2 fold change (IRAK-1-4 Inhibitor I): inactive: -0.044
log2 fold change [6]: inactive: -0.035
log2 fold change (ralimetinib): inactive: -0.094
log2 fold change [7]: inactive: -0.104
log2 fold change [8]: inactive: 0.018
log2 fold change [9]: inactive: -0.048
log2 fold change [13]: inactive: -0.135
log2 fold change [10]: inactive: 0.104
log2 fold change [11]: inactive: 0.074
log2 fold change [12]: inactive: -0.209

FOXL2 (UniProt P58012)
log2 fold change (erlotinib): inactive: 0.274
log2 fold change [1]: inactive: -0.129
log2 fold change [2]: inactive: -0.006
log2 fold change [3]: inactive: -0.085
log2 fold change [4]: inactive: -0.024
log2 fold change [5]: inactive: 0.187
log2 fold change (IRAK-1-4 Inhibitor I): inactive: 0.026
log2 fold change (ibrutinib): inactive: -0.074
log2 fold change [6]: inactive: -0.065
log2 fold change (ralimetinib): inactive: 0.264
log2 fold change [7]: inactive: -0.095
log2 fold change [8]: inactive: 0.161
log2 fold change [13]: inactive: -0.023
log2 fold change [11]: inactive: 0.02
log2 fold change [12]: inactive: -0.035

GDE1 (UniProt Q9NZC3)
log2 fold change (erlotinib): inactive: 0.042
log2 fold change [1]: inactive: 0.02
log2 fold change [2]: inactive: -0.032
log2 fold change [3]: inactive: 0.097
log2 fold change [4]: inactive: 0.05
log2 fold change [5]: inactive: 0.027
log2 fold change (IRAK-1-4 Inhibitor I): inactive: -0.01
log2 fold change (ibrutinib): inactive: -0.047
log2 fold change [6]: inactive: -0.017
log2 fold change (ralimetinib): inactive: 0.067
log2 fold change [7]: inactive: 0.026
log2 fold change [8]: inactive: 0.025
log2 fold change [13]: inactive: -0.038
log2 fold change [10]: inactive: -0.036
log2 fold change [11]: inactive: -0.122
log2 fold change [12]: inactive: -0.014

FUOM (UniProt A2VDF0)
log2 fold change (erlotinib): inactive: -0.066
log2 fold change [14]: inactive: 0.406
log2 fold change [1]: inactive: -0.23
log2 fold change [15]: inactive: 0.053
log2 fold change [3]: inactive: 0.043
log2 fold change [16]: inactive: -0.089
log2 fold change [4]: inactive: -0.147
log2 fold change [5]: inactive: 0.022
log2 fold change (IRAK-1-4 Inhibitor I): inactive: 0.018
log2 fold change [6]: inactive: -0.05
log2 fold change (ralimetinib): inactive: 0.041
log2 fold change [7]: inactive: -0.004
log2 fold change [8]: inactive: 0.098
log2 fold change [9]: inactive: -0.069
log2 fold change [13]: inactive: -0.099
log2 fold change [11]: inactive: 0.047
log2 fold change [12]: inactive: -0.06

GATM (UniProt P50440)
log2 fold change [4]: inactive: 0.217
log2 fold change [5]: inactive: 0.315

FUNDC2 (UniProt H7C0K8)
log2 fold change [14]: inactive: 0.315
log2 fold change [15]: inactive: 0.079
log2 fold change [2]: inactive: -0.152
log2 fold change [16]: inactive: -0.049
log2 fold change (ibrutinib): inactive: 0.325
log2 fold change [6]: inactive: -0.07
log2 fold change [9]: inactive: -0.068
log2 fold change [12]: inactive: -0.064

FRAS1 isoform 2 (UniProt Q86XX4)
log2 fold change [14]: inactive: -0.119
log2 fold change [15]: inactive: -0.022
log2 fold change [16]: inactive: 0.039
log2 fold change [13]: inactive: -0.033
log2 fold change [10]: inactive: 0.264

GAB3 isoform 2 (UniProt Q8WWW8)
log2 fold change [3]: inactive: -0.178
log2 fold change [4]: inactive: 0
log2 fold change [5]: inactive: 0.043
log2 fold change (IRAK-1-4 Inhibitor I): inactive: 0.002
log2 fold change (ralimetinib): inactive: 0.066
log2 fold change [7]: inactive: 0.268
log2 fold change [13]: inactive: -0.016
log2 fold change [10]: inactive: 0.021
log2 fold change [11]: inactive: 0.299

FPGS (UniProt Q05932)
log2 fold change [3]: inactive: -0.066
log2 fold change [4]: inactive: 0.123
log2 fold change [5]: inactive: 0.043
log2 fold change (IRAK-1-4 Inhibitor I): inactive: 0.065
log2 fold change (ralimetinib): inactive: 0.026
log2 fold change [7]: inactive: 0.039
log2 fold change [9]: inactive: 0.039
log2 fold change [13]: inactive: -0.152
log2 fold change [11]: inactive: -0.089

GART (UniProt C9JZG2)
log2 fold change [2]: inactive: 0.092
log2 fold change [3]: inactive: 0.007
log2 fold change [4]: inactive: -0.025
log2 fold change [5]: inactive: -0.011
log2 fold change (IRAK-1-4 Inhibitor I): inactive: 0.078
log2 fold change (ibrutinib): inactive: -0.062
log2 fold change [6]: inactive: 0.037
log2 fold change (ralimetinib): inactive: 0.069
log2 fold change [7]: inactive: -0.068
log2 fold change [9]: inactive: -0.114
log2 fold change [10]: inactive: 0.083
log2 fold change [11]: inactive: -0.052
log2 fold change [12]: inactive: 0.022

FZD1 (UniProt Q9UP38)
log2 fold change [3]: inactive: 0.041
log2 fold change (IRAK-1-4 Inhibitor I): inactive: -0.059
log2 fold change (ralimetinib): inactive: 0.001
log2 fold change [7]: inactive: -0.005
log2 fold change [9]: inactive: 0.045
log2 fold change [10]: inactive: 0.001
log2 fold change [11]: inactive: -0.096

GC isoform 3 (UniProt P02774)
log2 fold change [14]: inactive: 0.039
log2 fold change [15]: inactive: -0.019
log2 fold change [3]: inactive: -0.199
log2 fold change [16]: inactive: 0.012
log2 fold change [4]: inactive: 0.051
log2 fold change [5]: inactive: 0.055
log2 fold change (IRAK-1-4 Inhibitor I): inactive: 0.15
log2 fold change (ralimetinib): inactive: 0.051
log2 fold change [7]: active: -0.559
log2 fold change [13]: inactive: -0.148
log2 fold change [10]: inactive: -0.087
log2 fold change [11]: inactive: -0.101
